# Test results from PMC5882309.
# The chains behind the UniProt entries cited, without tags or fusion partners.
# UniProt P05412: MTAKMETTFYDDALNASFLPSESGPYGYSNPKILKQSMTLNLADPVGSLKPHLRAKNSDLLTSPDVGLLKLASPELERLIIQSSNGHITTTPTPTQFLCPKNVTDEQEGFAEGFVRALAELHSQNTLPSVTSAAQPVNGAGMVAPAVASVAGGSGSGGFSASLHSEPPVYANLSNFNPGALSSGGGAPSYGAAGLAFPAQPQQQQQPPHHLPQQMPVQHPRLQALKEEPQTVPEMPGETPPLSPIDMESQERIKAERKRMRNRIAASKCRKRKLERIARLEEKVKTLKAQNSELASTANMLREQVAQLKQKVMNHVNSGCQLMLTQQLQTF
# UniProt P05627: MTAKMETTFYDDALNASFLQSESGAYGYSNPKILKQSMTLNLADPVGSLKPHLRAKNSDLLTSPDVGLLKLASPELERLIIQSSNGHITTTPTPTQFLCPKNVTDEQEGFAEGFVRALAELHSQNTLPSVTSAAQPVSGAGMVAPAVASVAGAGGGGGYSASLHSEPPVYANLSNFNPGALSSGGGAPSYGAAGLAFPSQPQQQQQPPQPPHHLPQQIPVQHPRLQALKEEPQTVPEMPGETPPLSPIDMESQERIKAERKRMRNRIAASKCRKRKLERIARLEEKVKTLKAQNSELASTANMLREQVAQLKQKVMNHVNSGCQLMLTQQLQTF
# No constants are given. Whether binding was seen depends on the method and setting. Binding seen in cells or lysates may run through a third protein. Some results given as binding are weak or reduced against the parent protein; the word gives no strength.
# Assays:
# Experiment in all cases: co-IP; 5x10^6 cells lysed in 1x RIPA buffer with protease inhibitors; 500 ug lysate with 2 ug anti-BATF3 antibody (3H1) for 1 hour at 4°C, then protein A/G-agarose overnight at 4°C; Western blot for BATF3, JUN and Hsp70
# [1] = biological target: T1, basic leucine zipper protein ATF-like 3 (BATF3), endogenous in HL cell line L428 (human (endogenous in L428)) (UniProt Q9NR55)
# T1 sequence: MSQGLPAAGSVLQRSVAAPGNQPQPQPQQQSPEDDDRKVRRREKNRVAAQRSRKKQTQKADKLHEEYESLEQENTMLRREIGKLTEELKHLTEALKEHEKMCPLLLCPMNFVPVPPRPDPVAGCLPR
# [2] = biological target: T2, human BATF3, retrovirally expressed in HL cell line L428 (human) (UniProt Q9NR55)
# T2 sequence: T1 sequence
# [3] = biological target: T3, human BATF3, retrovirally expressed in murine BATF3-induced B-cell tumor cell lines (T1-T3) (human) (UniProt Q9NR55)
# T3 sequence: T1 sequence
binding [1],binding [2],binding [3],Substance
binds,binds,,"JUN, endogenous in HL cell line L428 (from UniProt P05412 1-331)"
,,binds,"JUN, endogenous in murine BATF3-induced B-cell tumor cell lines (T1-T3) (from UniProt P05627 1-334)"
